PubChem BioAssay AID743454 – Peter MacCallum Cancer Centre – 2014
The deposit covers about 18,000 reagents; this is a part drawn at random. Of all reagents, 450 (2.5%) got an active call. 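Single biological run; no consistent viability z cut-off exists, so the class columns, not z-scores, define the calls.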

- Test: 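Knock-downs lowering viability or raising caspase 3/7 activity in vorinostat-treated resistant cells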 (primary screen)
- Cell system: human HCT116-VR colon cancer cells, selected for vorinostat resistance
- Reagent: siRNA pool against human genes, 40 nM siRNA pool
- Time to read-out: vorinostat for 24 h, read-out about 72 h after transfection
- Conditions: vorinostat at 2.5 µM final
- Measurement: 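Cell viability by CellTiter-Fluor and caspase 3/7 activity by luminescence, each scaled to mock wells per plate, duplicates averaged, then robust z-scored over all plates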
- Reading the numbers: viability robust z-score: higher = more viable cells than screen typical; caspase robust z-score: higher = more caspase 3/7 activity than screen typical
- Hit rule: 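a knock-down is a hit when classed RV1 or RV2 for lowered viability, or CA1 or CA2 for caspase activation; those lethal without drug were dropped; hits were retested singly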

ZFHX4 (zinc finger homeobox 4): viability hit class = no change; caspase hit class = no change; viability robust z-score = 0.22; caspase robust z-score = -1.16; outcome = inactive
ZNF274 (zinc finger protein 274): viability hit class = no change; caspase hit class = no change; viability robust z-score = 2.49; caspase robust z-score = 0.36; outcome = inactive
SELENOV (selenoprotein V): viability hit class = no change; caspase hit class = no change; viability robust z-score = 0.97; caspase robust z-score = 3.09; outcome = inactive
TRIM7 (tripartite motif containing 7): viability hit class = no change; caspase hit class = no change; viability robust z-score = 0.4; caspase robust z-score = -0.08; outcome = inactive
BBS1 (Bardet-Biedl syndrome 1): viability hit class = no change; caspase hit class = no change; viability robust z-score = 0.36; caspase robust z-score = -0.34; outcome = inactive
TMED4 (transmembrane p24 trafficking protein 4): viability hit class = no change; caspase hit class = no change; viability robust z-score = -3.12; caspase robust z-score = 3.58; outcome = inactive

The list goes on (2 carried over from the part before).
BBS1 (Bardet-Biedl syndrome 1): viability hit class = no change; caspase hit class = no change; viability robust z-score = 0.36; caspase robust z-score = -0.34; outcome = inactive
TMED4 (transmembrane p24 trafficking protein 4): viability hit class = no change; caspase hit class = no change; viability robust z-score = -3.12; caspase robust z-score = 3.58; outcome = inactive
NEURL3 (neuralized E3 ubiquitin protein ligase 3): viability hit class = no change; caspase hit class = no change; viability robust z-score = -0.91; caspase robust z-score = 4.69; outcome = inactive
DCLK3 (doublecortin like kinase 3): viability hit class = no change; caspase hit class = no change; viability robust z-score = -0.44; caspase robust z-score = -0.52; outcome = inactive
MMP12 (matrix metallopeptidase 12): viability hit class = no change; caspase hit class = no change; viability robust z-score = 0.52; caspase robust z-score = -0.77; outcome = inactive
TXNDC11 (thioredoxin domain containing 11): viability hit class = no change; caspase hit class = no change; viability robust z-score = 0.44; caspase robust z-score = 2.07; outcome = inactive
MPPE1 (metallophosphoesterase 1): viability hit class = no change; caspase hit class = no change; viability robust z-score = 0.44; caspase robust z-score = 0.15; outcome = inactive
TSLIG3C (tRNA splicing ligase complex subunit 3C): viability hit class = no change; caspase hit class = no change; viability robust z-score = -0.63; caspase robust z-score = 3.08; outcome = inactive
